According to the supplement of paper PMC11006884:
What follows is the remainder of the data, with few or none of the targets with a hit. Single values of this set are uncertain. Only a part is listed here, and it is no random draw.

Amino acid sequences for entries named in this document (tags omitted). A change or cut given only in a name is not applied to a line headed by its entry.
UniProt Q92878: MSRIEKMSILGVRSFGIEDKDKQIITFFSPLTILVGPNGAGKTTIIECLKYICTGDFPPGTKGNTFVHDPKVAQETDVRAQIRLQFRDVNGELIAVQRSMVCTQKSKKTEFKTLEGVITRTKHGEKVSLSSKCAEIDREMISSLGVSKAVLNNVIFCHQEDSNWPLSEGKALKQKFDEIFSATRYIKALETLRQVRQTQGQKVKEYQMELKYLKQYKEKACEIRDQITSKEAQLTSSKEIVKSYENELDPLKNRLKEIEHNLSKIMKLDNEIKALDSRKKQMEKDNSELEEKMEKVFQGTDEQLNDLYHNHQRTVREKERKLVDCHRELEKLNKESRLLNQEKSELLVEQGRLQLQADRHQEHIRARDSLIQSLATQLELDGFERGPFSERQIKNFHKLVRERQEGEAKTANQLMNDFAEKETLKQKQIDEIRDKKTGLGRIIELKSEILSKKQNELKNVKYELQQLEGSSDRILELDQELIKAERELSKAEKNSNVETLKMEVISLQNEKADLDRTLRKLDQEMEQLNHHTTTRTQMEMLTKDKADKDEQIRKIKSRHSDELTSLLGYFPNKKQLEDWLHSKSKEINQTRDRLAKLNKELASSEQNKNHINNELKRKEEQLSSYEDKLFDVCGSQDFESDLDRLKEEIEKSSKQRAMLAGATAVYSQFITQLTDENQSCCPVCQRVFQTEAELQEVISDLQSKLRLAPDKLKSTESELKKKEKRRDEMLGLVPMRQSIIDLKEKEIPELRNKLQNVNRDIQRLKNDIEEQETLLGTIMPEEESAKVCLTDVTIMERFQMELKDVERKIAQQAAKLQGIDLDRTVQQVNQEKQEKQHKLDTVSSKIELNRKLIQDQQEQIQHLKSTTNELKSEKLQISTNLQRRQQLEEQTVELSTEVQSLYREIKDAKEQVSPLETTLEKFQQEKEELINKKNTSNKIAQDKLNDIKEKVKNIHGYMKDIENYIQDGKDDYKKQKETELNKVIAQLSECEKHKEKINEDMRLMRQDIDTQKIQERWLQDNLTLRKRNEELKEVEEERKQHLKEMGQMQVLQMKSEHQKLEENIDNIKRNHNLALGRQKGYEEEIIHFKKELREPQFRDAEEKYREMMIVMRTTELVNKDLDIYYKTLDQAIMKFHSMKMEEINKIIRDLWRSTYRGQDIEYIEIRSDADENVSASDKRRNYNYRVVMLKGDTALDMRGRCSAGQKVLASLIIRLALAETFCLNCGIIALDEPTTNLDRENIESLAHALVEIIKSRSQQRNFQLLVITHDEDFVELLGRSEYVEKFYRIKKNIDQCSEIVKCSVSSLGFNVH
UniProt Q92698: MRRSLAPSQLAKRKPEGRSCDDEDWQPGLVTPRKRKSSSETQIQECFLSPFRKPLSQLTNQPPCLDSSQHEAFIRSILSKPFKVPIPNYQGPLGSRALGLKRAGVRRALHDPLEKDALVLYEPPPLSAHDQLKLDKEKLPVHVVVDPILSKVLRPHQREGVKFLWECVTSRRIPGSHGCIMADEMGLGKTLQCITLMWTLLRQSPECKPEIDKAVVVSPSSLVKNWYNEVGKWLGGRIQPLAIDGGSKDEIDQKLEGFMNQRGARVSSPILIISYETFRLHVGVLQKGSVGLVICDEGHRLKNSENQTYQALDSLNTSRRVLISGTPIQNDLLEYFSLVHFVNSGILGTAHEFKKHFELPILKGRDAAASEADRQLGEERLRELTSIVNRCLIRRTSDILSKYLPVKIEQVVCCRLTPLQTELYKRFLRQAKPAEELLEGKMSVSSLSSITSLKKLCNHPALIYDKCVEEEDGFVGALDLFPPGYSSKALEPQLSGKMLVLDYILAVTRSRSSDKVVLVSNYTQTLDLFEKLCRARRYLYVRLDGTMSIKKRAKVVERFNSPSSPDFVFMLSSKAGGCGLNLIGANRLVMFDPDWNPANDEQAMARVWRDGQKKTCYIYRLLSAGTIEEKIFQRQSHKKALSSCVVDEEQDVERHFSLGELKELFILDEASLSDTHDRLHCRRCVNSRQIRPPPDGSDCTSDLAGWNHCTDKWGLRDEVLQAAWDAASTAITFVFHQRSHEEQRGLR
UniProt Q96F63: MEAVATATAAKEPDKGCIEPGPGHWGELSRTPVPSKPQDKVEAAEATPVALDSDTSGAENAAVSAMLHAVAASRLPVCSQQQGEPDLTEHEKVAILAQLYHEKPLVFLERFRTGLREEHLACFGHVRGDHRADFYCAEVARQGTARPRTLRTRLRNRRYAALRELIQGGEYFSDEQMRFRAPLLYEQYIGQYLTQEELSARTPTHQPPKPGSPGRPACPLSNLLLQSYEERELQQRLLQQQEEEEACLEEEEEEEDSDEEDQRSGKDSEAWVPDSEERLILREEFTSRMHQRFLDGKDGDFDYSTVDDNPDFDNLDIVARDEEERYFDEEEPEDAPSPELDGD
UniProt Q96HA7: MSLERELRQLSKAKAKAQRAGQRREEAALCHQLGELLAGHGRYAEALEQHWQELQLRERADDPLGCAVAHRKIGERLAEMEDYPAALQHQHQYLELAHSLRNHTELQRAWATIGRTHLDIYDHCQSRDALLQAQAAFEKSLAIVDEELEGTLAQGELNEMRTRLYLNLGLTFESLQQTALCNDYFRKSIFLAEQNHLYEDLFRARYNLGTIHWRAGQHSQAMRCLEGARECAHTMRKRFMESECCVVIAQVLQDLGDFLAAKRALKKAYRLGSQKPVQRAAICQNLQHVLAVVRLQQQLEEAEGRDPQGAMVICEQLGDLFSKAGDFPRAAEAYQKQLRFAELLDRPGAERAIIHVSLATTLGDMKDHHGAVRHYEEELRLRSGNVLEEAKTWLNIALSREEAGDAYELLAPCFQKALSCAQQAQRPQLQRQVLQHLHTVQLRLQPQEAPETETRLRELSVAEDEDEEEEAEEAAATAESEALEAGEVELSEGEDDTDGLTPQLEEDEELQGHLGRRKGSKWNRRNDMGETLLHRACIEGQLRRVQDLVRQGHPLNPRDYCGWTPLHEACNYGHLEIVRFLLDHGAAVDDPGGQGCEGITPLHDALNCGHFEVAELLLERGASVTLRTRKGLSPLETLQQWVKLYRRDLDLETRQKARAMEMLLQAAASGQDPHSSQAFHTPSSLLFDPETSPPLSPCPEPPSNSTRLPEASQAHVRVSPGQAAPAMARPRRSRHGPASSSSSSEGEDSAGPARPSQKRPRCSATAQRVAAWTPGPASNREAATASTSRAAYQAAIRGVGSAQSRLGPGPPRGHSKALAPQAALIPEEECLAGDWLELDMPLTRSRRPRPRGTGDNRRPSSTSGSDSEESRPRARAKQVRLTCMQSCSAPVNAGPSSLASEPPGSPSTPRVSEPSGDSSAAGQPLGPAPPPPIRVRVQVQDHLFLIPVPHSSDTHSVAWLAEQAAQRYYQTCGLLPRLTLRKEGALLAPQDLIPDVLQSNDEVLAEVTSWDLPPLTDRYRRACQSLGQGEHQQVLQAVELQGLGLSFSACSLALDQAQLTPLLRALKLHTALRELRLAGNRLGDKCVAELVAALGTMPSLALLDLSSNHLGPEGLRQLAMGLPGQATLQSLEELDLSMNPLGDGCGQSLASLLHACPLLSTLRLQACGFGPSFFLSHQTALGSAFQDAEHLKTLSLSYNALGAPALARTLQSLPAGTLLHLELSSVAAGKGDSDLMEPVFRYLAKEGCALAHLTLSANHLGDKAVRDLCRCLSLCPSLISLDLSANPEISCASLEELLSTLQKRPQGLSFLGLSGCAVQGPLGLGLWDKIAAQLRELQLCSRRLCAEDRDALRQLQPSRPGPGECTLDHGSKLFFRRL
UniProt Q92538, whole entry, looked up: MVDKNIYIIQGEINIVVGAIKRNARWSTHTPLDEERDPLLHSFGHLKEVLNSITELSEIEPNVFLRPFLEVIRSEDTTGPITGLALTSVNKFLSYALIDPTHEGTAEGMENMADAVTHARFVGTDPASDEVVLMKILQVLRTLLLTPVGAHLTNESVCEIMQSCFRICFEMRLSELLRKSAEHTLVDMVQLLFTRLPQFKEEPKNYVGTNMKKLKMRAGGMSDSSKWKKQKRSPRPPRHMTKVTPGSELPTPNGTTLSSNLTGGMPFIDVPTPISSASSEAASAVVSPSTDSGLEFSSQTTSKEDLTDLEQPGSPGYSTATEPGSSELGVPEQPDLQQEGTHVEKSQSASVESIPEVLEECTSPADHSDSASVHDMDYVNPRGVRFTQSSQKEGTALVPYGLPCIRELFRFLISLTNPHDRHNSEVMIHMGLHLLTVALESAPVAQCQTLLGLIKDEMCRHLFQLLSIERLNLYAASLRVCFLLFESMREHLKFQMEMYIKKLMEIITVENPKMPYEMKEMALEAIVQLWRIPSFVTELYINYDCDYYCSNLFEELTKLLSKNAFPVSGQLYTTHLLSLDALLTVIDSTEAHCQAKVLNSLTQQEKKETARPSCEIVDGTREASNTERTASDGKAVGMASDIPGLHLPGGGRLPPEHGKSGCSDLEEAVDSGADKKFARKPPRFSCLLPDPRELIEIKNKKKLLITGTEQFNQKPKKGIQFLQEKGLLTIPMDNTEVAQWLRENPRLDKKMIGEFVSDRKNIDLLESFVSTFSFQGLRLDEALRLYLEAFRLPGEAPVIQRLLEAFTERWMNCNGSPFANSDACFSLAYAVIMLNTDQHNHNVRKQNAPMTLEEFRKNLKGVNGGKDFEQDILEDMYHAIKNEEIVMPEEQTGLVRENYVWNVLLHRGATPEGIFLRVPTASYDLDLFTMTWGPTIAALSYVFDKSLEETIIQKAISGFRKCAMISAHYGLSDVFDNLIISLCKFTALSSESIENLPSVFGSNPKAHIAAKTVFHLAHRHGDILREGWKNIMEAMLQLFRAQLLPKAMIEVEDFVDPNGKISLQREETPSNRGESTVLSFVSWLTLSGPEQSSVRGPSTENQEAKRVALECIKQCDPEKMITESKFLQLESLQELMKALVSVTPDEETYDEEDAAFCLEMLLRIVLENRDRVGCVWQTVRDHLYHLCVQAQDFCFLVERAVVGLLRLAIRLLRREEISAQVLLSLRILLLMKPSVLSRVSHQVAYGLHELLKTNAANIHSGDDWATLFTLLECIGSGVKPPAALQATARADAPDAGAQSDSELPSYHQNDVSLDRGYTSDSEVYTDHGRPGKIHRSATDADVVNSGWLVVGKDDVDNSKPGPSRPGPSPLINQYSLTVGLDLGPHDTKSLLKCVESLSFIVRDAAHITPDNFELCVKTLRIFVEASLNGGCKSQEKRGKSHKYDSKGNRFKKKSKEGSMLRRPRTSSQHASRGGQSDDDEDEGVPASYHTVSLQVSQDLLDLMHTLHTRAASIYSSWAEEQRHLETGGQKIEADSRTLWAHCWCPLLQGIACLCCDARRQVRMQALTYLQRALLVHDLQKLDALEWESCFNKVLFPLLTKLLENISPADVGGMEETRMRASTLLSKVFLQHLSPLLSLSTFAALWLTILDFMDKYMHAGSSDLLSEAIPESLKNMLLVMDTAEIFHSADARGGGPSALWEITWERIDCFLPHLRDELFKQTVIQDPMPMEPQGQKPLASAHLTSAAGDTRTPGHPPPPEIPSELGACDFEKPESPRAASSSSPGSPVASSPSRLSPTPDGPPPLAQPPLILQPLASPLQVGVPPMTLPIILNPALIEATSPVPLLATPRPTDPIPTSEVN
UniProt Q96GM5, whole entry, looked up: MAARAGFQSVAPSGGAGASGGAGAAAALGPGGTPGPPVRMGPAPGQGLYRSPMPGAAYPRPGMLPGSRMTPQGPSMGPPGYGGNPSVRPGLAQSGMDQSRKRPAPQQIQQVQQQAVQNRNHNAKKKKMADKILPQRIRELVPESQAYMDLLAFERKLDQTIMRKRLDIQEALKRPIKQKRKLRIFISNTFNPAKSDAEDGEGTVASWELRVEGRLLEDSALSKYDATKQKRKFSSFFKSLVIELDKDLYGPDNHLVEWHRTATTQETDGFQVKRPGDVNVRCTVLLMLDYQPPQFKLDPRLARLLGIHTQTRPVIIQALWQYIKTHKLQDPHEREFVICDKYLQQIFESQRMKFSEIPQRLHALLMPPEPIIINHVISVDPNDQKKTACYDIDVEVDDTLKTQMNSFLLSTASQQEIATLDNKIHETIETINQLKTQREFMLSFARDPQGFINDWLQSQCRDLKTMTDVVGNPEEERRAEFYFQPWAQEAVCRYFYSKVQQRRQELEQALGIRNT
UniProt Q96EM0: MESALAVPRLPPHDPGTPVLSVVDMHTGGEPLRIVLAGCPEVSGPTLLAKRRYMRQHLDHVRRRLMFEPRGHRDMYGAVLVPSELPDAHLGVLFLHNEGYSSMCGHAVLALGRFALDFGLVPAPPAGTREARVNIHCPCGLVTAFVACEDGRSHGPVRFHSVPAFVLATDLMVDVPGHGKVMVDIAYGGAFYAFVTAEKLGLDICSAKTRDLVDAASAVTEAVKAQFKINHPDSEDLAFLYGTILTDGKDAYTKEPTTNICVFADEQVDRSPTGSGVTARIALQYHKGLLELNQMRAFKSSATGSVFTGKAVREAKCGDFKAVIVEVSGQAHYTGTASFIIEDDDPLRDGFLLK

The targets below were run with COC(=O)/C=C/c1ccccc1 [methyl cinnamate] (assay: log2 ratio of iodoacetamide-alkyne labeling of the cysteine site, DMSO over compound (competition); higher = stronger covalent engagement of the cysteine by the compound, active = 1 or more). Conditions: 500 µM; treatment time 1 h; system: HEK293T cell lysate.
How it was run: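 Three replicates, each with duplicate channels, were prepared from HEK293T lysate (2 mg/mL) treated with vehicle or electrophile at 500 µM for 1 h at ambient temperature. Iodoacetamide alkyne was then applied for 1 h, and samples were clicked to sCIP-TMT reagents, pooled, trypsin-digested overnight at 37 °C, enriched on streptavidin, acid-eluted and analysed on Orbitrap Eclipse LC-MS/MS with FAIMS, with FragPipe quantification. The log2 competition ratio per cysteine is the mean control-channel divided by the mean compound-channel reporter intensity. Cysteines quantified in only one replicate were left out.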

log2 ratio of iodoacetamide-alkyne labeling, inactive:
LPP C262 (UniProt Q93052) 0.283
USP7 C223 (UniProt Q93009) -0.0788
FUBP1 C332 (UniProt Q96AE4) 0.159
PDXP C26 (UniProt Q96GD0) -0.131
MRPL24 C190 (UniProt Q96A35) 0.193
RAD50 C157 (UniProt Q92878) -0.108
TUBGCP3 C274 (UniProt Q96CW5) 0.136
RAD54L C20 (UniProt Q92698) 0.074
UniProt Q969V6_C326 0.347
PYCR2 C95 (UniProt Q96C36) -0.471
POM121 C217 (UniProt Q96HA1) 0.197
CCDC97 C218 (UniProt Q96F63) 0.234
EDC3 C477 (UniProt Q96F86) 0.155
UniProt Q96G28_C138 -0.052
USP9X C1061 (UniProt Q93008) 0.161
THOC1 C396 (UniProt Q96FV9) 0.227
SNX19 C368 (UniProt Q92543) 0.237
TOE1 C271 (UniProt Q96GM8) 0.0476
DPF2 C306 (UniProt Q92785) 0.00141
UniProt Q969Z3_C272 0.0568
RABGGTA C354 (UniProt Q92696) -0.171
SMARCC1 C164 (UniProt Q92922) 0.136
TSC1 C306 (UniProt Q92574) 0.513
UniProt Q96BD8_C142 0.17
GPKOW C137 (UniProt Q92917) 0.444
TONSL C830 (UniProt Q96HA7) 0.0334
UniProt Q92616_C246 0.0116
GBF1 C685 (UniProt Q92538) -0.131
UniProt Q96BR5_C24 0.138
GBF1 C592 (UniProt Q92538) 0.237
SMARCD1 C460 (UniProt Q96GM5) -0.107
UniProt Q92841_C247 -0.0864
RPL36AL C72 (UniProt Q969Q0) 0.173
FAF2 C414 (UniProt Q96CS3) 0.00227
CLP1 C338 (UniProt Q92989) 0.334
UniProt Q96EM0_C39 0.0607
TNPO1 C297 (UniProt Q92973) -0.261

Copied from the results shown (2 entries):
log2 ratio of iodoacetamide-alkyne labeling, inactive:
USP9X C1061 (UniProt Q93008) 0.161
THOC1 C396 (UniProt Q96FV9) 0.227
